Results published in US20150291597A1, “NOVEL ORALLY BIOAVAILABLE BREATHING CONTROL MODULATING COMPOUNDS, AND METHODS OF USING SAME” (Galleon Pharmaceuticals, Inc., priority 2012, published 2015).

Test system: rats chronically treated with morphine
Test: Apnea, sleep architecture and ventilatory response in rats chronically treated with morphine
Format: in vivo, Adult male lean Zucker rats
Conditions: 7 mg/kg PO, versus vehicle, hydrogen sulfate
Procedure: The objective of this study was to quantify the effects of select compounds of this invention on apnea, ventilation and sleep structure in a rat model. The study consisted of two treatment conditions: (1) chronic morphine and test compound, such as Compound 5b administered orally (7 mg/kg, PO), and (2) chronic morphine and oral vehicle. Adult male lean Zucker rats were anesthetized for electroencephalogram (EEG) and electromyogram (EMG) telemeter implantation. At least 1 week was permitted post-surgery before animals were used further. Morphine sulfate was added to the drinking water of singly housed rats beginning with 0.1 mg/ml morphine and increasing the concentration in increments so that a final concentration of 0.6 mg/ml was achieved within 2 weeks. […] Minute volume and the number of central sleep apneas (CSA) were measured during all treatment conditions. […]
Compound 5b (7 mg/kg) or an equivalent volume of vehicle was administered via an oral gavage tube at 12 pm. […] Breathing data during wakefulness was not analyzed because movement prevents measurement of accurate volumes when using whole-body plethysmography. When differences were detected with ANOVA, Student-Neuman-Keuls post hoc tests were run for all main effects and interactions. […] Values are expressed as means±SE.

For `C#CCNc1nc(NCCC)nc(N(C)OC)n1` [Compound 5b, O,N-Dimethyl-N-[4-(n-propylamino)-6-(prop-2-ynylamino)-[1,3,5]triazin-2-yl]-hydroxylamine hydrogen sulfate], the “percent time spent in NREM sleep” value was “No differences were observed; also recorded: no visible effect; also recorded: does alter time spent in NREM” and the “percent time spent in REM sleep” value was “no visible effect; also recorded: does not alter”.

“Also recorded” adds a separate entry of the source. Counter-ions that a name gives are not always drawn.
